# PubChem BioAssay AID1347426 (Functional Genomics Laboratory (NCATS/FGL), 2020)
# Among all 31,000 sequences or so, about 1,400 (4.5%) were called active.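 Rule for the calls: active = median seed-adjusted z-score above 1 or below -1; inactive = the rest.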 The list shows a part of the results.
# Test: Novel Modifiers of Survival Motor Neuron (SMN) Protein: Gene Identification via Genome-wide siRNA Screen;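 note: luminescence tracks full-length SMN protein made from the SMN2 reporter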
# Settings: HEK293T SMN2-luciferase reporter, siRNA knockdown, 72 h; actives lie on both sides
# In short: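 Steps: spot 1 pmol siRNA, add Lipofectamine RNAiMax in serum-free DMEM, seed HEK293T SMN2–luciferase reporter cells; incubate 72 h at 37 °C; add ONE-Glo; normalize luminescence to control siRNA, log10, MAD. Candidates: |MAD| > 1.0.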
row,Sequence,median seed-adjusted z-score
1,GAAGGACUAUAGUCUGUUATT against COIL,inactive: 0
2,GGGCUUUGAUAGGAAUGCATT against UBE2K,inactive: 0.497
3,CCAAAGAUAUCGGACCCUATT against PI4K2A,inactive: -0.486
4,CUUUAACUAUGGAAAGACATT against ZNF253,inactive: 0.0237
5,GCUUGAAGUUAAUAGGUUUTT against CHKA,inactive: -0.558
6,GCCUUCUUCCGGAACAUCATT against KCNA6,inactive: 0
7,CAGCUGUGCUAAUAGGAUUTT against MFSD8,inactive: -0.461
8,GCCUAUCAGGAUCCCAGCATT against RIN1,inactive: -0.0694
9,GCAGUUAACCGGGUACCAATT against TKT,inactive: 0.0314
10,UCAAGUUCGAGAUCCCUUATT against AP1M1,inactive: 0.42
11,GUCCUUUGCUUAUACAUCUTT against ZNF586,inactive: -0.973
12,GAUUGAGGCCUACAUGGAATT against ITPK1,inactive: 0.0575
13,GAAAGAUCGAGAUAGACAATT against TWF1,inactive: -0.171
14,GGACAUUGCAAGUAUCUCUTT against GABRP,inactive: -0.441
15,GAAACUAUAUCCACAUCAATT against GIPR,inactive: 0.475
16,AGUACUCCCUGGACCUUCATT against CACNA1I,inactive: 0.346
17,CUCUCUUAUUUGUACCGGUTT against VEGFA,inactive: 0.495
18,GUAUCAUGACUACAGCGAUTT against DPT,inactive: 0.073
19,CCCUCGAGCAUGUUCCAAATT against PRPF6,active: -1.06
20,GAAACCCUUUUGGACUUAATT against RAB27B,inactive: 0
21,GCCGAGUCAGUAUCUAUGATT against STARD13,inactive: -0.0337
22,GGUGUUAUCUCUUAAGGCATT against HIVEP1,inactive: 0.532
23,AAAUGCAAUUCAAGCCUUUTT against GFRA1,inactive: 0.125
24,GCUUAUAUGAUAUCACCGATT against TPK1,inactive: 0.521
25,CACUUCAACUACUCCGUGATT against GPN3,inactive: -0.796
26,CCGUGGUGAUGGAACGCAUTT against PDXK,inactive: -0.247
27,GUCACGCUAUGAGACCUCATT against E2F1,inactive: -0.211
28,ACAUCACAGUAGAUACGGATT against XYLT2,inactive: 0.148
29,GAGGUGUGCUUUCUCACAATT against NLGN2,inactive: 0.204
30,GGCAAAUAGAUAUCGCAAATT against ZDHHC14,inactive: 0.312

# Some of the entries above, reformatted.
row | Sequence | median seed-adjusted z-score
23 | AAAUGCAAUUCAAGCCUUUTT against GFRA1 | inactive: 0.125
24 | GCUUAUAUGAUAUCACCGATT against TPK1 | inactive: 0.521
